# Reference: the supplement of paper PMC11006884
# Protein sequences, listed by entry. Tags and fused reporters are not part of them. Lines headed by an entry give the natural chain unless they say otherwise; changes in a name come on top.
# UniProt P43246, whole entry, looked up: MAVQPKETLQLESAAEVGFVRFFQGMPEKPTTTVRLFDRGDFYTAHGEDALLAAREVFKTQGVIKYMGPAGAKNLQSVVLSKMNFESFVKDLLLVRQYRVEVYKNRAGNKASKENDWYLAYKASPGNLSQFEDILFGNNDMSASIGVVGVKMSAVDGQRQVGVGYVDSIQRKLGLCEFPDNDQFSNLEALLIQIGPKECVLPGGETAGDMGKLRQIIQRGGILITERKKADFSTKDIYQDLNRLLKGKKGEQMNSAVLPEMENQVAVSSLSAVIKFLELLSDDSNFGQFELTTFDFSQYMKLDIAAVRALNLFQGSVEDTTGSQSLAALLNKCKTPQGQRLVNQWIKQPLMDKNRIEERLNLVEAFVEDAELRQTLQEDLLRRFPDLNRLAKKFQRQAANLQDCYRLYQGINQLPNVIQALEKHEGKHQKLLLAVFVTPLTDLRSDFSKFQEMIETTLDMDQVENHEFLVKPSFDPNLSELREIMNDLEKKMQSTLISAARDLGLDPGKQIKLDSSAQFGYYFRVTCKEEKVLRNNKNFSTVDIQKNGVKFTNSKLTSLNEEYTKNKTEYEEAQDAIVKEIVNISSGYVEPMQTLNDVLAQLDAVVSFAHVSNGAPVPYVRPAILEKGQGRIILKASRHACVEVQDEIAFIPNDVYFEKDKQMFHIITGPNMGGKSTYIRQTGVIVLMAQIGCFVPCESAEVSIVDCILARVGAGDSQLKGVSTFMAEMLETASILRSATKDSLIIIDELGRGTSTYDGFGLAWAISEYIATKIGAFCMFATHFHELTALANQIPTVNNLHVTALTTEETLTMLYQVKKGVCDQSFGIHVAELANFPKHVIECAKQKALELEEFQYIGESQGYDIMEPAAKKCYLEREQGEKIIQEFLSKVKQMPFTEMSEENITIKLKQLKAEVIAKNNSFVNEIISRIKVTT
# UniProt P48643, whole entry, looked up: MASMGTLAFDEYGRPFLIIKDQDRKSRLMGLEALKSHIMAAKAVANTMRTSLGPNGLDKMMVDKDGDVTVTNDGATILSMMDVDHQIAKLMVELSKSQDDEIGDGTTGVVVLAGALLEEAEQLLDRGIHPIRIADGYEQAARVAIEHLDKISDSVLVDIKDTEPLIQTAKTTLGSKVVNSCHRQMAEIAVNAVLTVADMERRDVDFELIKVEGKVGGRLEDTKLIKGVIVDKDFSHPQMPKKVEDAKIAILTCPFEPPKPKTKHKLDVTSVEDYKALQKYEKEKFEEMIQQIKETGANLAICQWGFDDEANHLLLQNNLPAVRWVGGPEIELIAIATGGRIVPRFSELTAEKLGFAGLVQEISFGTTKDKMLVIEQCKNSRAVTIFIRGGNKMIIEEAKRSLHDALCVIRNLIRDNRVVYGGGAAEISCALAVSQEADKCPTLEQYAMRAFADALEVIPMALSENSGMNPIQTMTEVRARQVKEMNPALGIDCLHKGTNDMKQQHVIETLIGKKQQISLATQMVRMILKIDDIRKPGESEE
# UniProt P46939: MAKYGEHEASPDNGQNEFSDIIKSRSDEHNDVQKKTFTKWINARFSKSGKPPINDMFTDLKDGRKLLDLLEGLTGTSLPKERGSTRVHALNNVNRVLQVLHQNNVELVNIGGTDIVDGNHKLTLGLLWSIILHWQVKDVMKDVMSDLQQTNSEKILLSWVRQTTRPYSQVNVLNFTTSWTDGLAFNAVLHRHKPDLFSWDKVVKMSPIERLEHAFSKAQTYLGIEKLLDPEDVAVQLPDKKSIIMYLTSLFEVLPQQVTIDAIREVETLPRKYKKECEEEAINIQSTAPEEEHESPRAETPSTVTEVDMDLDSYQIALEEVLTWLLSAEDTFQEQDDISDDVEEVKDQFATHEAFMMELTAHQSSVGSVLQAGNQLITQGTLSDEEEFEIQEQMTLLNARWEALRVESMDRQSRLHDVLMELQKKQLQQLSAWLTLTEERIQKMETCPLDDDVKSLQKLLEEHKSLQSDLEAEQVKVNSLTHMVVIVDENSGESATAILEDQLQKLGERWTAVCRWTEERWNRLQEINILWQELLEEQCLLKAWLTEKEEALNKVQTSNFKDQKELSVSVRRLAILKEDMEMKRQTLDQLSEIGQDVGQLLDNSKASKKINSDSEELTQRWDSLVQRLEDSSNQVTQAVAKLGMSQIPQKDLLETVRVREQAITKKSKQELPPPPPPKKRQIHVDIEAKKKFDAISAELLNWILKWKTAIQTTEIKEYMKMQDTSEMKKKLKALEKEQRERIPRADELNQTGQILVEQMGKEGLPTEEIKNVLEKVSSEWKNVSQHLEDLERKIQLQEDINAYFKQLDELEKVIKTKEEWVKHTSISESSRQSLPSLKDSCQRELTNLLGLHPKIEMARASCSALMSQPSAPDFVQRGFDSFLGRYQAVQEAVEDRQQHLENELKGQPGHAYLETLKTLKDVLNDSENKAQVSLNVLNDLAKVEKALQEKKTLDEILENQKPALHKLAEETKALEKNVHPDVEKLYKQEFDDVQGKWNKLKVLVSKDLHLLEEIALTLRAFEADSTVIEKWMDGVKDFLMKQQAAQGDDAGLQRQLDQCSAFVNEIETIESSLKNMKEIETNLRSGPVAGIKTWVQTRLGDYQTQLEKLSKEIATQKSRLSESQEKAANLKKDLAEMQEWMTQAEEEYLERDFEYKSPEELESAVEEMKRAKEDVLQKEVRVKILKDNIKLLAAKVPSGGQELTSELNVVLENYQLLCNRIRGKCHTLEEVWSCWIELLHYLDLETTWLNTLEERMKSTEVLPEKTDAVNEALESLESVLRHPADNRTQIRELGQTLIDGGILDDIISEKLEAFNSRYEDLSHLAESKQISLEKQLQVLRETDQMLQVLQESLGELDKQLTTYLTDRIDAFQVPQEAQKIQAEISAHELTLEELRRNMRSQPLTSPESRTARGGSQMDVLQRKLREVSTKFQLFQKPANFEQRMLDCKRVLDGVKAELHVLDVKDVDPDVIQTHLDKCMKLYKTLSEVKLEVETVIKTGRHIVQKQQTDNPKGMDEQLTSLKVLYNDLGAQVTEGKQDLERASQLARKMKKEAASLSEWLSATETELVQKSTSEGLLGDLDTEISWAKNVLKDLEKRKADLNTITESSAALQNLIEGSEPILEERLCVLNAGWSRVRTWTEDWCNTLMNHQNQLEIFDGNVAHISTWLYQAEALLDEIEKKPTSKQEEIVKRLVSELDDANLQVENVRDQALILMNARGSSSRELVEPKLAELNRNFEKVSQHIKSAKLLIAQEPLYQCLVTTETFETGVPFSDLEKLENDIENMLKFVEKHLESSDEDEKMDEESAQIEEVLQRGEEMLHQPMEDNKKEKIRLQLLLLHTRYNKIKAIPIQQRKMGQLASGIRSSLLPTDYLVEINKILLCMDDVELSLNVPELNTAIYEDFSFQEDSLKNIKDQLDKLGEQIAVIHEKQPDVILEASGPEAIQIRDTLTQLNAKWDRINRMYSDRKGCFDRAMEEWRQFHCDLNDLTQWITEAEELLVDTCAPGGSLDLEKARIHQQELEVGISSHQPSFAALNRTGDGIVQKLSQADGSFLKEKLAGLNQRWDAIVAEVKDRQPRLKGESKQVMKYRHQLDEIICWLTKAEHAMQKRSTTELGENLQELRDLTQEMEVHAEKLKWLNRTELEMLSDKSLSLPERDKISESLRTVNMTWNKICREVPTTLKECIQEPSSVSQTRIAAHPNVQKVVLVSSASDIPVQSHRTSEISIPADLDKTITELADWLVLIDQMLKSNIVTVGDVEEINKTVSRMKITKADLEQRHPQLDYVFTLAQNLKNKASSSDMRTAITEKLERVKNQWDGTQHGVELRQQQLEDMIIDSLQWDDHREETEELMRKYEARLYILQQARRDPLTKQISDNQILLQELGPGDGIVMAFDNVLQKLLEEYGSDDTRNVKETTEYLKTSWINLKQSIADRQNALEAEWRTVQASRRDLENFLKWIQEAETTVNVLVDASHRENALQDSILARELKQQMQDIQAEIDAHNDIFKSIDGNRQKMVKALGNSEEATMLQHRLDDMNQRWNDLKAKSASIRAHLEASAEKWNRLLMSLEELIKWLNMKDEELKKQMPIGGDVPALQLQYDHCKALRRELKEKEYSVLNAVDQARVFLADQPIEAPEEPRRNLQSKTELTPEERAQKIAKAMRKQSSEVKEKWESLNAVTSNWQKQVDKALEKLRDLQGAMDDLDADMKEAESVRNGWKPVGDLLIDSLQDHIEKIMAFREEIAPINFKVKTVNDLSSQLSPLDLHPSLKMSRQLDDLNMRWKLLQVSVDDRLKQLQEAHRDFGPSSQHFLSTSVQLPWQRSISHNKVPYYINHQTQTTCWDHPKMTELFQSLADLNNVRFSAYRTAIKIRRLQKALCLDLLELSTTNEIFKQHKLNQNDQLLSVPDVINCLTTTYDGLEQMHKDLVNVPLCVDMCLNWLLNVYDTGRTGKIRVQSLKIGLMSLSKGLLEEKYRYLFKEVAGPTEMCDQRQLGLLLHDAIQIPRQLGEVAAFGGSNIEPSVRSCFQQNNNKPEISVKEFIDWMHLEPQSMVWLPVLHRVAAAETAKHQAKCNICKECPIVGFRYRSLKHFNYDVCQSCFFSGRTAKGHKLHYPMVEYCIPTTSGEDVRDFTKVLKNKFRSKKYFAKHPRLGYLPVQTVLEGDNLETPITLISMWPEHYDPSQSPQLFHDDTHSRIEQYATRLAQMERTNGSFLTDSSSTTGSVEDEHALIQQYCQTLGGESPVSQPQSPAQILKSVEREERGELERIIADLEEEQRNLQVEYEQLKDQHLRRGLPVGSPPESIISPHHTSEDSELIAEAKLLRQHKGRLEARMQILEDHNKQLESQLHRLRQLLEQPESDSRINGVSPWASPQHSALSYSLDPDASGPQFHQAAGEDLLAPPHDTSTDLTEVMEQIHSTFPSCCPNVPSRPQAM
# UniProt P46060: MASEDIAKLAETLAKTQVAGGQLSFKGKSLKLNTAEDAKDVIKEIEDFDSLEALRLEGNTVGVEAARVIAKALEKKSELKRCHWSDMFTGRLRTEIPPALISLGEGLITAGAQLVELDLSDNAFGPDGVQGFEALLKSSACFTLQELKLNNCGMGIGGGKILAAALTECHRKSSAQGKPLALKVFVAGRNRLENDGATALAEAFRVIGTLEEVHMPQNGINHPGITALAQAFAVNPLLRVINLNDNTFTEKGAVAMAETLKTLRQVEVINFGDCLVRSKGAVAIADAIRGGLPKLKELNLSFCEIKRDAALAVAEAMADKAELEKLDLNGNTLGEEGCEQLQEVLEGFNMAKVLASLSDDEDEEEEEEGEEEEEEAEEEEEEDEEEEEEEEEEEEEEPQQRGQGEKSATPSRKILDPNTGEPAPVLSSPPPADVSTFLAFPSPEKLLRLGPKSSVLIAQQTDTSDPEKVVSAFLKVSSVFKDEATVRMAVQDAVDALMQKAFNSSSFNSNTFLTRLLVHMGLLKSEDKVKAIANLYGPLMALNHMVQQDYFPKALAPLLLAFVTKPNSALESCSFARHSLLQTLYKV
# UniProt P50991: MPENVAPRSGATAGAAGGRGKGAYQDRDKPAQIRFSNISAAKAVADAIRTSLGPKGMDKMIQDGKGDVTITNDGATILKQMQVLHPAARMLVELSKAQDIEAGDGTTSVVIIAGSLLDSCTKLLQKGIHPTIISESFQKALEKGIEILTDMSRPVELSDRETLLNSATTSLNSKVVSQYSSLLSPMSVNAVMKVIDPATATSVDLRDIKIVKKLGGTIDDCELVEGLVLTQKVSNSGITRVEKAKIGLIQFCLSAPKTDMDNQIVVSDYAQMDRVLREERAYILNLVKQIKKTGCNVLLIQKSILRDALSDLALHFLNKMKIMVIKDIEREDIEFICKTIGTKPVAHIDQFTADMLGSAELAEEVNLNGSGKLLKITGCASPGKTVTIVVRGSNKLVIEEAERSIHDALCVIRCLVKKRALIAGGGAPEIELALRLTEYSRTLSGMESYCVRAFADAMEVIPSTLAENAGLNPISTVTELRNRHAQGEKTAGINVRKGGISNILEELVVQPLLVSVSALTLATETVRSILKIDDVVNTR
# UniProt P49368: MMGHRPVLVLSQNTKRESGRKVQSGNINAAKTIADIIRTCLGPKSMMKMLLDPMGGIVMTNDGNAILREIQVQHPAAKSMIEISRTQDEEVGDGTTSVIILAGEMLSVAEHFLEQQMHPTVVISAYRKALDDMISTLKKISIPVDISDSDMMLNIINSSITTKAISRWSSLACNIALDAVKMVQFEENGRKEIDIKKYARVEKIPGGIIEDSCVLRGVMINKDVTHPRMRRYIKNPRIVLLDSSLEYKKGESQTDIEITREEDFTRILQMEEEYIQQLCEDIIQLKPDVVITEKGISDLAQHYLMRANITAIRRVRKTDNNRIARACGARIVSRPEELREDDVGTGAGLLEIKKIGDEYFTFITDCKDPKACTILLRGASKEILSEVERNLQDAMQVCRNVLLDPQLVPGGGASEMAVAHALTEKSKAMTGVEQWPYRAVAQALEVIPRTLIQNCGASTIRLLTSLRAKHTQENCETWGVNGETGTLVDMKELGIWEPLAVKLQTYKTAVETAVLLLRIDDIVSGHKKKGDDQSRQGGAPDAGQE
# Shown are results outside the selection of targets with a hit, which stands elsewhere. Single values of this set are uncertain. The entries are a selection whose mix differs from that of the whole data set.
# Compound: COC(=O)/C=C/c1ccccc1 [methyl cinnamate]
# Assay: log2 ratio of iodoacetamide-alkyne labeling of the cysteine site, DMSO over compound (competition); higher = stronger covalent engagement of the cysteine by the compound, active = 1 or more
# Conditions: 500 µM; treatment time 1 h; system: HEK293T cell lysate
# Outline: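 HEK293T lysate (2 mg/mL) was treated with DMSO or electrophile (500 µM, 1 h, ambient temperature), then iodoacetamide alkyne (1 h), clicked to sCIP-TMT reagents, pooled, trypsin-digested overnight at 37 °C, streptavidin-enriched and acid-eluted. Peptides were run on Orbitrap Eclipse LC-MS/MS with FAIMS and quantified in FragPipe. The log2 competition ratio per cysteine is mean control-channel over mean compound-channel reporter intensity. Duplicate channels and three replicates were used, and cysteines quantified in only one replicate were excluded.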
row,Target,log2 ratio of iodoacetamide-alkyne labeling
1,MSH2 C333 (UniProt P43246),inactive: 0.0763
2,RPL5 C100 (UniProt P46777),inactive: 0.195
3,HCFC1 C1872 (UniProt P51610),inactive: 0.257
4,RBM25 C132 (UniProt P49756),inactive: 0.128
5,FXR2 C270 (UniProt P51116),inactive: 0.238
6,SMARCA4 C936 (UniProt P51532),inactive: 0.145
7,RANBP1 C99 (UniProt P43487),inactive: 0.108
8,NSF C11 (UniProt P46459),inactive: -0.1
9,MKI67 C3014 (UniProt P46013),inactive: -0.091
10,CCT5 C181 (UniProt P48643),inactive: 0.195
11,UTRN C2185 (UniProt P46939),inactive: 0.0765
12,PLA2G4A C726 (UniProt P47712),inactive: 0.286
13,NSF C599 (UniProt P46459),inactive: 0.0542
14,RANGAP1 C338 (UniProt P46060),inactive: 0.0536
15,CCT5 C377 (UniProt P48643),inactive: 0.396
16,GMPS C489 (UniProt P49915),inactive: 0.226
17,RANBP2 C220 (UniProt P49792),inactive: 0.0399
18,CCT4 C221 (UniProt P50991),inactive: -0.143
19,RPL34 C46 (UniProt P49207),inactive: 0.227
20,FASN C1548 (UniProt P49327),inactive: 0.226
21,RPL14 C42 (UniProt P50914),inactive: 0.16
22,UniProt P48634_C1821,inactive: 0.186
23,UniProt P49840_C398,inactive: 0.0746

# Reprinted at random: 2 entries already listed.
row,Target,log2 ratio of iodoacetamide-alkyne labeling
1,MSH2 C333 (UniProt P43246),inactive: 0.0763
9,MKI67 C3014 (UniProt P46013),inactive: -0.091

# (continued)

row,Target,log2 ratio of iodoacetamide-alkyne labeling
1,VASP C334 (UniProt P50552),inactive: 0.469
2,DHPS C142 (UniProt P49366),inactive: 0.104
3,RANBP2 C206 (UniProt P49792),inactive: 0.19
4,MAP1B C382 (UniProt P46821),inactive: 0.579
5,CCT5 C407 (UniProt P48643),inactive: -0.0265
6,MAP1B C73 (UniProt P46821),inactive: -0.0781
7,FASN C1459 (UniProt P49327),inactive: 0.219
8,PCYT1A C73 (UniProt P49585),inactive: 0.39
9,KNTC1 C767 (UniProt P50748),inactive: -0.102
10,RPL27A C144 (UniProt P46776),inactive: -0.164
11,UniProt P49591_C438,inactive: 0.128
12,DNA2 C1051 (UniProt P51530),inactive: 0.0793
13,MECP2 C413 (UniProt P51608),inactive: 0.0786
14,SMARCA4 C1359 (UniProt P51532),inactive: 0.126
15,UniProt P49840_C408,inactive: 0.3
16,NASP C254 (UniProt P49321),inactive: -0.119
17,MAP1B C2041 (UniProt P46821),inactive: 0.158
18,PREP C25 (UniProt P48147),inactive: 0.00615
19,FASN C2359 (UniProt P49327),inactive: -0.123
20,IRAK1 C620 (UniProt P51617),inactive: 0.0906
21,UTRN C862 (UniProt P46939),inactive: 0.304
22,METAP2 C290 (UniProt P50579),inactive: 0.343
23,VDAC2 C210 (UniProt P45880),inactive: 0.0403

row,Target,log2 ratio of iodoacetamide-alkyne labeling
1,NUP153 C1129 (UniProt P49790),inactive: 0.375
2,RANGAP1 C303 (UniProt P46060),inactive: 0.272
3,CCT3 C455 (UniProt P49368),inactive: 0.149
4,SEPHS1 C71 (UniProt P49903),inactive: -0.027
5,RPL14 C54 (UniProt P50914),inactive: 0.0537
6,EIF2B2 C310 (UniProt P49770),inactive: 0.0373
7,MSH2 C843 (UniProt P43246),inactive: 0.343
8,CCT4 C337 (UniProt P50991),inactive: 0.243
9,PSMD8 C112 (UniProt P48556),inactive: 0.234
10,DNM2 C607 (UniProt P50570),inactive: -0.0224
11,IREB2 C137 (UniProt P48200),inactive: 0.432
12,LIMS1 C138 (UniProt P48059),inactive: 0.226
13,CCT8 C187 (UniProt P50990),inactive: 0.0218
14,VDAC2 C227 (UniProt P45880),inactive: 0.0403
15,UniProt P49591_C431,inactive: -0.0487
16,RPS5 C172 (UniProt P46782),inactive: -0.0134
17,MKI67 C3241 (UniProt P46013),inactive: 0.262
18,CRKL C249 (UniProt P46109),inactive: 0.364
19,UniProt P49841_C199,inactive: 0.119
20,NDUFV1 C286 (UniProt P49821),inactive: -0.0384
21,UniProt P46734_C29,inactive: 0.44
22,CCT5 C302 (UniProt P48643),inactive: 0.114
23,UniProt P49753_C401,inactive: 0.0801

row,Target,log2 ratio of iodoacetamide-alkyne labeling
1,RANBP2 C1296 (UniProt P49792),inactive: 0.0596
2,NUP153 C404 (UniProt P49790),inactive: 0.365
3,MKI67 C2706 (UniProt P46013),inactive: 0.17
4,PDLIM4 C44 (UniProt P50479),inactive: -0.229
5,NDUFV1 C187 (UniProt P49821),inactive: 0.11
6,CCT3 C475 (UniProt P49368),inactive: 0.117
7,GALK1 C182 (UniProt P51570),inactive: -0.321
8,DUSP3 C171 (UniProt P51452),inactive: 0.358
9,CBX5 C133 (UniProt P45973),inactive: 0.312
10,IDH2 C418 (UniProt P48735),inactive: -0.0349
11,CCT3 C173 (UniProt P49368),inactive: 0.332
12,USP5 C335 (UniProt P45974),inactive: -0.102
13,RANGAP1 C274 (UniProt P46060),inactive: 0.0539
14,PHKA1 C1082 (UniProt P46020),inactive: 0.479
15,IDH2 C154 (UniProt P48735),inactive: 0.153
16,DNM2 C27 (UniProt P50570),inactive: 0.0421
17,TSC2 C414 (UniProt P49815),inactive: -0.0403
18,CAPZB C8 (UniProt P47756),inactive: 0.59
19,UniProt P45985_C246,inactive: -0.0533
20,AARS C723 (UniProt P49588),inactive: 0.124
21,MAP1B C190 (UniProt P46821),inactive: 0.119
22,CCT4 C120 (UniProt P50991),inactive: 0.121
23,MKI67 C1981 (UniProt P46013),inactive: -0.289

# A different layout for part of the listing above.
row | Target | log2 ratio of iodoacetamide-alkyne labeling
2 | NUP153 C404 (UniProt P49790) | inactive: 0.365
11 | CCT3 C173 (UniProt P49368) | inactive: 0.332
14 | PHKA1 C1082 (UniProt P46020) | inactive: 0.479

# Remaining list, next part.

row,Target,log2 ratio of iodoacetamide-alkyne labeling
1,MATR3 C821 (UniProt P43243),inactive: 0.169
2,IQGAP1 C1534 (UniProt P46940),inactive: 0.224
3,FASN C2273 (UniProt P49327),inactive: 0.0474
4,CCT4 C450 (UniProt P50991),inactive: 0.289
5,UTRN C1059 (UniProt P46939),inactive: 0.0163
6,PREP C532 (UniProt P48147),inactive: 0.0974
7,PPOX C183 (UniProt P50336),inactive: 0.17
8,PAPOLA C293 (UniProt P51003),inactive: 0.156
9,PEX5 C11 (UniProt P50542),inactive: 0.0294
10,FASN C1118 (UniProt P49327),inactive: 0.00123
11,MCM2 C315 (UniProt P49736),inactive: 0.272
12,HCFC1 C1886 (UniProt P51610),inactive: 0.0527
13,CCT5 C440 (UniProt P48643),inactive: 0.0652
14,RPS5 C66 (UniProt P46782),inactive: 0.211
15,FASN C2468 (UniProt P49327),inactive: 0.197
16,IDH3A C331 (UniProt P50213),inactive: 0.184
17,FASN C1141 (UniProt P49327),inactive: 0.202
18,NT5C2 C181 (UniProt P49902),inactive: -0.0751
19,PTDSS1 C419 (UniProt P48651),inactive: -0.111

# An excerpt of these results, with tabs:
row	Target	log2 ratio of iodoacetamide-alkyne labeling
10	FASN C1118 (UniProt P49327)	inactive: 0.00123
11	MCM2 C315 (UniProt P49736)	inactive: 0.272
